Values of other authors, collected in publication PMC5700124 (Scientific Reports, 2017).

System: α2 adrenoceptor
Conditions: cerebral cortex, pH 7.4, 25.0 °C, mg^2+ 0, blocking of NS phentolamine 10 μM, cited from earlier work

For COC(=O)[C@@H]1[C@H]2C[C@H]3c4[nH]c5ccccc5c4CCN3C[C@@H]2CC[C@@H]1O [[^3H]yohimbine], the Bmax (ref Brown et al.[44]) is listed as 121 fmol/mg protein and the Bmax (ref Brown et al.[45]) is listed as 121 fmol/mg protein.

Where two headings read alike, the source gives them in different places.
